# Further values from the same series stand in other lists.
# System: 22Rv1 cells
# Assay: Global proteome analysis (LC-MS/MS, DIA) of differentially expressed proteins
# Type: cell-based, human
# Protocol: 22Rv1 cells were seeded in T75 culture bottles (4 × 10^6 cells/bottle in 20 mL/bottle), treated for 48 h with the 5 µM of compound 11 or vehicle (DMSO), harvested by scratching, washed twice with ice-cold PBS and flash-frozen. Cells were lysed and sonicated. The protein extracts were then heat-denaturated, reduced, alkylated and digested by trypsin. Peptides were chromatographically separated using full recovery autosampler vials and a nano-UPLC system (Acquity, Waters Corporation, Milford, MS, USA), coupled via electrospray ionization (ESI) to a tandem mass spectrometer equipped with a quadrupole and an orbitrap (QExactive, Thermo Fisher Scientific, Bremen, Germany), using MS/MS mode in data dependent acquisition (DDA) and data independent acquisition (DIA). The peptides, analyzed with DDA-LC-MS/MS, were identified with the search engine Sequest, integrated in the Proteome Discoverer software version 2.0 (Thermo Fischer Scientific) using the human Uniprot protein database (EMBL; Hinxton Cambridge, UK, release December 2018). […] For the details of sample preparation and proceeding, data acquisition and analysis see the Supplementary information. […]
# serum (FBS, Invitrogen) and 1% penicillin/streptomycin (Invitrogen)). […]
# Cell lines were lysed in 100 mM triethylammonium bicarbonate and 1% w/v sodium deoxycholate buffer followed by probe sonication to destroy polynucleotides and heat induce protein denaturing at 99 °C for 5 min. Protein concentrations were estimated with a bicinchonic acid (BCA) protein assay (Thermo Fisher Scientific, Bremen, Germany). 20 µg of protein were reduced in presence of 10 mM dithiotreithol (Sigma Aldrich) for 30 min at 60 °C followed by cysteine alkylation with 20 mM iodo acetamide (Sigma Aldrich) for 30 min at 37 °C in the dark and enzymatic degradation with sequencing grade trypsin (Promega) over night at 37 °C. Digestion was quenched with 1% formic acid (FA), precipitated sodium deoxycholate removed by centrifugation for 5 min at 14,000 g and the supernatant was dried in a vacuum centrifuge.
# LC-MS/MS in Data Dependent and Data Independent Mode
# Samples were resuspended in 0.1% FA and transferred into a full recovery autosampler vial (Waters). Chromatographic separation was achieved on a nano -UPLC system (Acquity, Waters Corporation, Milford, MS, USA) with a two-buffer-system (buffer A: 0.1% FA in water, buffer B:
# 0.1% FA in Acetonitrile (ACN), both at pH = 3). Attached to the UPLC was a reversed -phase peptide trapping column (Symmetry C18, 180 µm × 20 mm, 100 Å pore size, 5 µm particle size) for desalting, followed by a reversed-phase capillary separation of the tryptic peptides (BEH C18; 75 µm × 200 mm, 130 Å pore size, 1.7 µm particle size), using a 60 min gradient with increasing ACN concentration from 2–30% ACN. The eluting peptides were analyzed on a quadrupole-orbitrap mass spectrometer (QExactive, Thermo Fisher Scientific, Bremen, Germany) in data dependent acquisition (DDA) and data independent acquisition (DIA) for quantification.
# In DDA mode, one replicate of each cell line was randomly chosen and 1 µg per sample was used per LC-MS/MS run to build a reference spectral library used for data extraction of samples acquired in DIA mode. For DDA, the 12 most intense ions per precursor scan (1 × 10 6 ions, 70,000 Resolution, 120 ms fill time) were analyzed by MS/MS (HCD at 25 normalized collision energy, 1 × 105 ions, 17,500 Resolution, 50 ms fill time) in a range of 400–1300 m/z. A dynamic precursor exclusion of 20 s was used. For DIA, 1 µg of each sample was analyzed using a 30 sequential 20 Da fixed window method covering the mass range from 400 –1000 m/z. Per cycle, 2 precursor scans (1 × […]
# 28 normalized collision energy, 1 × 106 ions, 17,500 Resolution, 50 ms fill time) were performed.
# After the first precursor scan, 15 MS/MS scans were performed covering the precursor mass range from 400–700 m/z followed by the second precursor scan and another 15 MS/MS scans ranging from […]
# LC-MS/MS Data Processing and Analysis […]
smiles,measurement,setting,value
CC1(C)OC2OC(C(O)COC3=CC(=O)c4cccc(O)c4C3=O)C(O)C2O1 (stereo not drawn) [Compound 11],Fold change (treated / control),DHX15_HUMAN O43143,0.9051
same,Fold change (treated / control),DHX30_HUMAN Q7L2E3,0.6273
same,Fold change (treated / control),DIAP1_HUMAN O60610,1.239
same,Fold change (treated / control),DIDO1_HUMAN Q9BTC0,0.5009
same,Fold change (treated / control),DJB11_HUMAN Q9UBS4,1.136
same,Fold change (treated / control),DKC1_HUMAN O60832,0.8634
same,Fold change (treated / control),DNJA3_HUMAN Q96EY1,1.243
same,Fold change (treated / control),DNJC7_HUMAN Q99615,0.6825
same,Fold change (treated / control),DNLI1_HUMAN P18858,0.4962
same,Fold change (treated / control),DNMT1_HUMAN P26358,0.5164
same,Fold change (treated / control),DNS2A_HUMAN O00115,1.462
same,Fold change (treated / control),DOPD_HUMAN P30046,1.3746
same,Fold change (treated / control),DPOE3_HUMAN Q9NRF9,0.6062
same,Fold change (treated / control),DPP2_HUMAN Q9UHL4,1.527
same,Fold change (treated / control),DUT_HUMAN P33316,0.4993
same,Fold change (treated / control),DX39B_HUMAN Q13838,0.8243
same,Fold change (treated / control),DYHC1_HUMAN Q14204,1.111
same,Fold change (treated / control),ECH1_HUMAN Q13011,1.323
same,Fold change (treated / control),ECHB_HUMAN P55084,0.9071
same,Fold change (treated / control),EDF1_HUMAN O60869,0.6154
same,Fold change (treated / control),EDN3_HUMAN P14138,0.08248
same,Fold change (treated / control),EF1A2_HUMAN Q05639,1.362
same,Fold change (treated / control),EF1B_HUMAN P24534,1.196
same,Fold change (treated / control),EF1D_HUMAN P29692,1.228
same,Fold change (treated / control),EF1G_HUMAN P26641,1.244
same,Fold change (treated / control),EF2_HUMAN P13639,1.234
same,Fold change (treated / control),EFTU_HUMAN P49411,0.6185
same,Fold change (treated / control),EI2BA_HUMAN Q14232,0.8901
same,Fold change (treated / control),ERF3A_HUMAN P15170,1.126
same,Fold change (treated / control),ERGI1_HUMAN Q969X5,1.217
same,Fold change (treated / control),ERP29_HUMAN P30040,1.223
same,Fold change (treated / control),ERP44_HUMAN Q9BS26,1.188
same,Fold change (treated / control),ETFA_HUMAN P13804,0.8829
same,Fold change (treated / control),EZRI_HUMAN P15311,1.285
same,Fold change (treated / control),F111B_HUMAN Q6SJ93,0.3955
same,Fold change (treated / control),FA5_HUMAN P12259,3.338
same,Fold change (treated / control),FAHD1_HUMAN Q6P587,1.4702
same,Fold change (treated / control),FAKD2_HUMAN Q9NYY8,0.6444
same,Fold change (treated / control),FAKD4_HUMAN Q969Z0,0.7242
same,Fold change (treated / control),FAS_HUMAN P49327,0.6765
same,Fold change (treated / control),FFAR4_HUMAN Q5NUL3,1.972
same,Fold change (treated / control),FIS1_HUMAN Q9Y3D6,1.23
same,Fold change (treated / control),FKBP8_HUMAN Q14318,0.6712
same,Fold change (treated / control),FLII_HUMAN Q13045,1.166
same,Fold change (treated / control),FLOT2_HUMAN Q14254,0.7567
same,Fold change (treated / control),G3BP1_HUMAN Q13283,0.8044
same,Fold change (treated / control),G6PI_HUMAN P06744,1.197
same,Fold change (treated / control),GANAB_HUMAN Q14697,1.172
same,Fold change (treated / control),GAR1_HUMAN Q9NY12,1.412
same,Fold change (treated / control),GARS_HUMAN P41250,1.337
same,Fold change (treated / control),GBB1_HUMAN P62873,1.1916
same,Fold change (treated / control),GCDH_HUMAN Q92947,0.7269
same,Fold change (treated / control),GDF15_HUMAN Q99988,6.064
same,Fold change (treated / control),GDIA_HUMAN P31150,1.322
same,Fold change (treated / control),GELS_HUMAN P06396,3.759
same,Fold change (treated / control),GEPH_HUMAN Q9NQX3,1.319
same,Fold change (treated / control),GFPT1_HUMAN Q06210,1.547
same,Fold change (treated / control),GGH_HUMAN Q92820,1.492
same,Fold change (treated / control),GHITM_HUMAN Q9H3K2,1.52
same,Fold change (treated / control),GL8D1_HUMAN Q68CQ7,0.6726
same,Fold change (treated / control),GLOD4_HUMAN Q9HC38,1.139
same,Fold change (treated / control),GLYG_HUMAN P46976,1.235
same,Fold change (treated / control),GLYM_HUMAN P34897,1.22
same,Fold change (treated / control),GLYR1_HUMAN Q49A26,0.5273
same,Fold change (treated / control),GNA1_HUMAN Q96EK6,1.1769
same,Fold change (treated / control),GNL1_HUMAN P36915,1.66
same,Fold change (treated / control),GNS_HUMAN P15586,1.596
same,Fold change (treated / control),GPI8_HUMAN Q92643,1.085
same,Fold change (treated / control),GRP75_HUMAN P38646,1.094
same,Fold change (treated / control),GRSF1_HUMAN Q12849,0.6529
same,Fold change (treated / control),GSHR_HUMAN P00390,1.251
same,Fold change (treated / control),GTF2I_HUMAN P78347,0.691
same,Fold change (treated / control),H2AY_HUMAN O75367,0.6499
same,Fold change (treated / control),H4_HUMAN P62805,0.5561
same,Fold change (treated / control),H10_HUMAN P07305,1.3122
same,Fold change (treated / control),H15_HUMAN P16401,0.9259
same,Fold change (treated / control),HBA_HUMAN P69905,2.912
same,Fold change (treated / control),HCD2_HUMAN Q99714,1.198
same,Fold change (treated / control),HDHD5_HUMAN Q9BXW7,0.4429
same,Fold change (treated / control),HEM6_HUMAN P36551,0.7705
same,Fold change (treated / control),HEXB_HUMAN P07686,1.461
same,Fold change (treated / control),HIC2_HUMAN Q96JB3,0.3552
same,Fold change (treated / control),HINT1_HUMAN P49773,1.268
same,Fold change (treated / control),HINT2_HUMAN Q9BX68,1.148
same,Fold change (treated / control),HMGA1_HUMAN P17096,1.982
same,Fold change (treated / control),HMOX1_HUMAN P09601,5.6185
same,Fold change (treated / control),HNRH1_HUMAN P31943,0.7863
same,Fold change (treated / control),HNRH3_HUMAN P31942,1.243
same,Fold change (treated / control),HNRL2_HUMAN Q1KMD3,1.166
same,Fold change (treated / control),HNRPQ_HUMAN O60506,1.316
same,Fold change (treated / control),HNRPU_HUMAN Q00839,0.9228
same,Fold change (treated / control),HP1B3_HUMAN Q5SSJ5,0.7171
same,Fold change (treated / control),HPBP1_HUMAN Q9NZL4,0.344
same,Fold change (treated / control),HPRT_HUMAN P00492,1.177
same,Fold change (treated / control),HS71A_HUMAN P0DMV8,0.8732
same,Fold change (treated / control),HSPB1_HUMAN P04792,1.876
same,Fold change (treated / control),HSPB6_HUMAN O14558,0.6349
same,Fold change (treated / control),I2BP2_HUMAN Q7Z5L9,1.686
same,Fold change (treated / control),ICLN_HUMAN P54105,2.931
same,Fold change (treated / control),IDH3A_HUMAN P50213,0.7993
same,Fold change (treated / control),IDHC_HUMAN O75874,1.211
same,Fold change (treated / control),IF2B1_HUMAN Q9NZI8,1.622

# Reference: article PMC6896172, “Successful Targeting of the Warburg Effect in Prostate Cancer by Glucose-Conjugated 1,4-Naphthoquinones” (Cancers, 2019)
